Results are given in words; binding and its absence hold for the method and conditions named. Some results given as binding are weak or reduced against the parent protein; the word gives no strength.

In the test the target is FKP-CTD-like molecule formed by autodegradation of FKP-FL and crystallised (FKP-CTD/fucose-1-P crystal) (Bacteroides fragilis 9343) (UniProt Q58T34). As to the kind of experiment: crystal structure; FKP-CTD from FKP autodegradation, F222 crystal, one molecule in the asymmetric unit, soaked with fucose-1-P, 2.46 Å; 50 mM Hepes pH 7.0, 0.8% trypton, 10% PEG3350; both purified.

B1: FKP-CTD-like molecule formed by autodegradation of FKP-FL and crystallised (FKP-CTD/fucose-1-P crystal) (domain or fragment, UniProt Q58T34 531-949)
chain: RIHNRMLRARILKLDGKDYRPEEQAAFDLLRDGLLDGISNRKSTPKLDVYSDQIVWGRSPVRIDMAGGWTDTPPYSLYSGGNVVNLAIELNGQPPLQVYVKPCKDFHIVLRSIDMGAMEIVSTFDELQDYKKIGSPFSIPKAALSLAGFAPAFSAVSYASLEEQLKDFGAGIEVTLLAAIPAGSGLGTSSILASTVLGAINDFCGLAWDKNEICQRTLVLEQLLTTGGGWQDQYGGVLQGVKLLQTEAGFAQSPLVRWLPDHLFTHPEYKDCHLLYYTGITRTAKGILAEIVSSMFLNSSLHLNLLSEMKAHALDMNEAIQRGSFVEFGRLVGKTWEQNKALDSGTNPPAVEAIIDLIKDYTLGYKLPGAGGGGYLYMVAKDPQAAVRIRKILTENAPNPRARFVEMTLSDKGFQVSRS
B1: the binding result is “binds”.

Values taken from article PMC11982464, “Structural insight into the catalytic mechanism of the bifunctional enzyme L-fucokinase/GDP-fucose pyrophosphorylase” (The Journal of Biological Chemistry, 2025).
